Results published in paper PMC3532225.
Results are given in words; binding and its absence hold for the method and conditions named. In cells and extracts the contact can be indirect. Some entries that bind do so weakly or less than the wild type.

Chains of the proteins cited; added tags and fusions are not shown.
UniProt P42224: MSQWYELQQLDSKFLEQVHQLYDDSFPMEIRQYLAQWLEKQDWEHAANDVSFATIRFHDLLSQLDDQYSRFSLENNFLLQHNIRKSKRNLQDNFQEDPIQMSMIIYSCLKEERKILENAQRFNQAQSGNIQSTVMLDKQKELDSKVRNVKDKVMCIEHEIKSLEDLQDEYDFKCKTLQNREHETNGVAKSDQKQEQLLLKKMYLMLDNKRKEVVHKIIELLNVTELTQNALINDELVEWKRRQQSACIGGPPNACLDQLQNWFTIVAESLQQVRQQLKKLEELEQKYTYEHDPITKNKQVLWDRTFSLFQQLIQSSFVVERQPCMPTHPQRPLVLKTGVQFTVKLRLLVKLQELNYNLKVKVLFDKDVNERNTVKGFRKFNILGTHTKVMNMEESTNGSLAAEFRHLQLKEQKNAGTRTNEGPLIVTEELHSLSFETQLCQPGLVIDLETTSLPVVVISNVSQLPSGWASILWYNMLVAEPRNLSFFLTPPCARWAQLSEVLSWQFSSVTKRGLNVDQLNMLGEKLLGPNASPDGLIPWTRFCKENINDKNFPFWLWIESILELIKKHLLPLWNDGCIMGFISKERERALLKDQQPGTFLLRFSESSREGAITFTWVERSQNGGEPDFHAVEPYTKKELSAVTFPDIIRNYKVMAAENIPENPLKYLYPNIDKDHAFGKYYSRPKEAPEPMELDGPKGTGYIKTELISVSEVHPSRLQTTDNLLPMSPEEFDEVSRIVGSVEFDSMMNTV

Molecular target: STAT1 WT-Flag (human) (UniProt P42224)
Experiment: co-IP; Cos-7 cells co-transfected with STAT1-HA and STAT1-Flag with or without SUMO-1-His; unstimulated or IFN-γ (100 ng/ml, 45 min) and osmotic shock (0.3 M sorbitol, 15 min); lysis in 20 mM HEPES pH 8.0, 100 mM NaCl, 1% Triton X-100, 10% glycerol, 50 mM NaF, 1 mM EDTA, 10 mM NEM; anti-Flag M2 agarose 3 h at 4°C, elution with Flag peptide, blot with anti-HA

SUMO-1 conjugated STAT1-HA (from UniProt P42224 1-750; P63165 1-97)
binding: binds
